Three molecules from PMC8784504 can be followed below.

Protein sequences, listed by entry. Tags and fused reporters are not part of them.
UniProt O15392: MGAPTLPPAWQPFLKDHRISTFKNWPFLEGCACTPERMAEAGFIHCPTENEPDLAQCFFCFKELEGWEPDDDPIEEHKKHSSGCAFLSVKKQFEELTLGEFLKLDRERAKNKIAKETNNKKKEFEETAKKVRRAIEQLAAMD
UniProt Q92905: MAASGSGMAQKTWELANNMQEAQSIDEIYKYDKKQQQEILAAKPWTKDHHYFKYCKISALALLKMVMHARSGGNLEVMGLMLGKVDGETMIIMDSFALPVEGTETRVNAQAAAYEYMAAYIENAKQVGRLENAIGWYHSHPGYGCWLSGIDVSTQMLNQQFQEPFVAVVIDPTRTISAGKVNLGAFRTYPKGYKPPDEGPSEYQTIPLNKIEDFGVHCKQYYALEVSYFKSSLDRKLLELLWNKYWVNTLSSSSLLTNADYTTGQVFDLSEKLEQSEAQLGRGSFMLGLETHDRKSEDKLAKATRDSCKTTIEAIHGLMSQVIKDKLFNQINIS
UniProt Q7L5N1: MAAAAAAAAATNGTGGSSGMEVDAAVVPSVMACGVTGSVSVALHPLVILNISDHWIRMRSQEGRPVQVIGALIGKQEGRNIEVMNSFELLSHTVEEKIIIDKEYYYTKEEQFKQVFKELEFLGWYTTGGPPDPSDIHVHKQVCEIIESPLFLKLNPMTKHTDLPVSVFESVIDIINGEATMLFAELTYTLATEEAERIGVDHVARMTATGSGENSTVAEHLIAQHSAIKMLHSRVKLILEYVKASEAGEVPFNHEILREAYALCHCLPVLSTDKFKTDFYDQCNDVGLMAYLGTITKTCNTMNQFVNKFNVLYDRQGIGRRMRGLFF

The target of test [1] is T1, recombinant human GST-STAMBPL1 (human) (UniProt Q96FJ0).
T1 sequence: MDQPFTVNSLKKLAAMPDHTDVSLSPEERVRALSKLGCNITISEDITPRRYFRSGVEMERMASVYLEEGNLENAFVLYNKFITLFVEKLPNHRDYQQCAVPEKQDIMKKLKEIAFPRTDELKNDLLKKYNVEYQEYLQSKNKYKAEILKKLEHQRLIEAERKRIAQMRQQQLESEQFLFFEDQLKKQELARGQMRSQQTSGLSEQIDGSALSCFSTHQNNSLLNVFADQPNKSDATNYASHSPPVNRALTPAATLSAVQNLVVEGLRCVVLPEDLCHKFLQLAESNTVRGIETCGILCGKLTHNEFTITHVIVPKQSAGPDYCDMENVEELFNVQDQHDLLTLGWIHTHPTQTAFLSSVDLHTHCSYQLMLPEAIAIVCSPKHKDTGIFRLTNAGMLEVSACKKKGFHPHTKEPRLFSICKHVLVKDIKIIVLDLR
The test can be described thus: co-IP; only the target purified.

The target in test [2] is Survivin (human (endogenous in AGS)) (UniProt O15392). The test can be described thus: co-IP; IP of endogenous STAMBPL1, AMSH or Survivin from AGS cell lysates with 1 μg specific antibody overnight at 4 °C, protein A/G magnetic beads, washed four times with RIPA buffer; immunoblot.

These are yes or no findings as the source states them, for the method shown. In cells and extracts the contact can be indirect. Some binding calls cover weakened binding; strength is not graded here. Tags and fused reporters may be left off the sequences shown.

Flag-CSN5 (from UniProt Q92905 1-334): in test [1], the binding result is “binds”.
Turning to Flag-CSN6 (from UniProt Q7L5N1 1-327), the binding result in test [1] is “binds”.

B1: STAM-binding protein like 1 (STAMBPL1) (enzyme, UniProt Q96FJ0 1-436)
chain: MDQPFTVNSLKKLAAMPDHTDVSLSPEERVRALSKLGCNITISEDITPRRYFRSGVEMERMASVYLEEGNLENAFVLYNKFITLFVEKLPNHRDYQQCAVPEKQDIMKKLKEIAFPRTDELKNDLLKKYNVEYQEYLQSKNKYKAEILKKLEHQRLIEAERKRIAQMRQQQLESEQFLFFEDQLKKQELARGQMRSQQTSGLSEQIDGSALSCFSTHQNNSLLNVFADQPNKSDATNYASHSPPVNRALTPAATLSAVQNLVVEGLRCVVLPEDLCHKFLQLAESNTVRGIETCGILCGKLTHNEFTITHVIVPKQSAGPDYCDMENVEELFNVQDQHDLLTLGWIHTHPTQTAFLSSVDLHTHCSYQLMLPEAIAIVCSPKHKDTGIFRLTNAGMLEVSACKKKGFHPHTKEPRLFSICKHVLVKDIKIIVLDLR
On to B1, for which, in test [2], the binding result was “binds”.
